At least one structure is not confirmed: it was looked up by name or label, or the drawing left a doubt.
Tested on: Ba/F3-EpoR-JAK2^V617F
Assay: mouse model of MPN, disease burden by IVIS imaging and spleen weight
Format: in vivo
Details: ruxolitinib 60 mg/kg PO BID; FIG. 2

Q: Which “disease burden, level of bioluminescene” value does the source give for N#CC[C@H](C1CCCC1)n1cc(-c2ncnc3[nH]ccc23)cn1 [ruxolitinib] here?
A: reduced
